# Results are given in words; binding and its absence hold for the method and conditions named. Binding seen in cells or lysates may run through a third protein. Some entries that bind do so weakly or less than the wild type. For some of these results: Where a sequence is shown, tags or fusion partners need not be part of it.
# By UniProt entry, the sequences of proteins in these tests, tags left out.
# UniProt P26368: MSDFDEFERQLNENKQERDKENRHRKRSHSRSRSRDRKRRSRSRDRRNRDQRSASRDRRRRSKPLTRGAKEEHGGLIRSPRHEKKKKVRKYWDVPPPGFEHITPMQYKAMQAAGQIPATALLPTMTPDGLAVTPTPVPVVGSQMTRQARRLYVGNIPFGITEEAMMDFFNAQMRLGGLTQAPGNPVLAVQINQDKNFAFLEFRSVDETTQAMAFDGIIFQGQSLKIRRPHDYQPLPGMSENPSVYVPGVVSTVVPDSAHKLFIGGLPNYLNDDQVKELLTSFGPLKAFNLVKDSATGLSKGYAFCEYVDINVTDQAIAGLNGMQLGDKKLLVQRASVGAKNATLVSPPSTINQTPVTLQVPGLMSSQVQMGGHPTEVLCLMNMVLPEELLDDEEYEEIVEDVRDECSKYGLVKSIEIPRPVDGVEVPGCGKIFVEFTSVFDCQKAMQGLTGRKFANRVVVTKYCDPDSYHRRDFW
# UniProt P26369: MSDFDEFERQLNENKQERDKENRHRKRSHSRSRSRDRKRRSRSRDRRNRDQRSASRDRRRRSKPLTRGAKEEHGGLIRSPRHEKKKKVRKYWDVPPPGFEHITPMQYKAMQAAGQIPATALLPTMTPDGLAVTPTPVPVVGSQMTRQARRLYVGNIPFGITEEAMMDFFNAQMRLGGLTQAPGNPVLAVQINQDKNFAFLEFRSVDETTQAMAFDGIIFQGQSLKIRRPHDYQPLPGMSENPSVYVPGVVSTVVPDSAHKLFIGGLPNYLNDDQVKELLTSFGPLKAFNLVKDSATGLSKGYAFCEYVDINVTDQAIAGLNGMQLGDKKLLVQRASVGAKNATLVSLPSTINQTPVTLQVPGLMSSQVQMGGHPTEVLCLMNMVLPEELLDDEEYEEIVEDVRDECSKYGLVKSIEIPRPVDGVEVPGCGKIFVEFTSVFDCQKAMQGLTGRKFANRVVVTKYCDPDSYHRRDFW
# T1: GST-SC35 (UniProt Q01130)
# T1 sequence: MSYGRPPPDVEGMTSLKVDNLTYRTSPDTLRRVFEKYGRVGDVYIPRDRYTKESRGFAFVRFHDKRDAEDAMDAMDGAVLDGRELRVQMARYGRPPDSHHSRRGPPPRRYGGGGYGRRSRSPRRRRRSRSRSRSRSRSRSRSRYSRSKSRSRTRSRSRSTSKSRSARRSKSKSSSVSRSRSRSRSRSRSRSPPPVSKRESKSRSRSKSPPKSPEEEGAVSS
# B1: SF3B1 (splicing factor 3b subunit 1), endogenous in N2a cells (protein, UniProt Q99NB9 1-1304)
# chain: MAKIAKTHEDIEAQIREIQGKKAALDEAQGVGLDSTGYYDQEIYGGSDSRFAGYVTSIAATELEDDDDDYSSSTSLLGQKKPGYHAPVALLNDIPQSTEQYDPFAEHRPPKIADREDEYKKHRRTMIISPERLDPFADGGKTPDPKMNARTYMDVMREQHLTKEEREIRQQLAEKAKAGELKVVNGAAASQPPSKRKRRWDQTADQTPGATPKKLSSWDQAETPGHTPSLRWDETPGRAKGSETPGATPGSKIWDPTPSHTPAGAATPGRGDTPGHATPGHGGATSSARKNRWDETPKTERDTPGHGSGWAETPRTDRGGDSIGETPTPGASKRKSRWDETPASQMGGSTPVLTPGKTPIGTPAMNMATPTPGHIMSMTPEQLQAWRWEREIDERNRPLSDEELDAMFPEGYKVLPPPAGYVPIRTPARKLTATPTPLGGMTGFHMQTEDRTMKSVNDQPSGNLPFLKPDDIQYFDKLLVDVDESTLSPEEQKERKIMKLLLKIKNGTPPMRKAALRQITDKAREFGAGPLFNQILPLLMSPTLEDQERHLLVKVIDRILYKLDDLVRPYVHKILVVIEPLLIDEDYYARVEGREIISNLAKAAGLATMISTMRPDIDNMDEYVRNTTARAFAVVASALGIPSLLPFLKAVCKSKKSWQARHTGIKIVQQIAILMGCAILPHLRSLVEIIEHGLVDEQQKVRTISALAIAALAEAATPYGIESFDSVLKPLWKGIRQHRGKGLAAFLKAIGYLIPLMDAEYANYYTREVMLILIREFQSPDEEMKKIVLKVVKQCCGTDGVEANYIKTEILPPFFKHFWQHRMALDRRNYRQLVDTTVELANKVGAAEIISRIVDDLKDEAEQYRKMVMETIEKIMGNLGAADIDHKLEEQLIDGILYAFQEQTTEDSVMLNGFGTVVNALGKRVKPYLPQICGTVLWRLNNKSAKVRQQAADLISRTAVVMKTCQEEKLMGHLGVVLYEYLGEEYPEVLGSILGALKAIVNVIGMHKMTPPIKDLLPRLTPILKNRHEKVQENCIDLVGRIADRGAEYVSAREWMRICFELLELLKAHKKAIRRATVNTFGYIAKAIGPHDVLATLLNNLKVQERQNRVCTTVAIAIVAETCSPFTVLPALMNEYRVPELNVQNGVLKSLSFLFEYIGEMGKDYIYAVTPLLEDALMDRDLVHRQTASAVVQHMSLGVYGFGCEDSLNHLLNYVWPNVFETSPHVIQAVMGALEGLRVAIGPCRMLQYCLQGLFHPARKVRDVYWKIYNSIYIGSQDALIAHYPRIYNDDKNTYIRYDLDYIL
# B2: SF3B3 (splicing factor 3b subunit 3), endogenous in N2a cells (protein, UniProt Q921M3 1-1217)
# chain: MFLYNLTLQRATGISFAIHGNFSGTKQQEIVVSRGKILELLRPDPNTGKVHTLLTVEVFGVIRSLMAFRLTGGTKDYIVVGSDSGRIVILEYQPSKNMFEKIHQETFGKSGCRRIVPGQFLAVDPKGRAVMISAIEKQKLVYILNRDAAARLTISSPLEAHKANTLVYHVVGVDVGFENPMFACLEMDYEEADNDPTGEAAANTQQTLTFYELDLGLNHVVRKYSEPLEEHGNFLITVPGGSDGPSGVLICSENYITYKNFGDQPDIRCPIPRRRNDLDDPERGMIFVCSATHKTKSMFFFLAQTEQGDIFKITLETDEDMVTEIRLKYFDTVPVAAAMCVLKTGFLFVASEFGNHYLYQIAHLGDDDEEPEFSSAMPLEEGDTFFFQPRPLKNLVLVDELDSLSPILFCQIADLANEDTPQLYVACGRGPRSSLRVLRHGLEVSEMAVSELPGNPNAVWTVRRHIEDEFDAYIIVSFVNATLVLSIGETVEEVTDSGFLGTTPTLSCSLLGDDALVQVYPDGIRHIRADKRVNEWKTPGKKTIVKCAVNQRQVVIALTGGELVYFEMDPSGQLNEYTERKEMSADVVCMSLANVPPGEQRSRFLAVGLVDNTVRIISLDPSDCLQPLSMQALPAQPESLCIVEMGGTEKQDELGERGSIGFLYLNIGLQNGVLLRTVLDPVTGDLSDTRTRYLGSRPVKLFRVRMQGQEAVLAMSSRSWLSYSYQSRFHLTPLSYETLEFASGFASEQCPEGIVAISTNTLRILALEKLGAVFNQVAFPLQYTPRKFVIHPESNNLIIIETDHNAYTEATKAQRKQQMAEEMVEAAGEDERELAAEMAAAFLNENLPESIFGAPKAGNGQWASVIRVMNPIQGNTLDLVQLEQNEAAFSVAVCRFSNTGEDWYVLVGVAKDLILSPRSVAGGFVYTYKLVNNGEKLEFLHKTPVEEVPAAIAPFQGRVLIGVGKLLRVYDLGKKKLLRKCENKHIANYISGIQTIGHRVIVSDVQESFIWVRYKRNENQLIIFADDTYPRWVTTASLLDYDTVAGADKFGNICVVRLPPNTNDEVDEDPTGNKALWDRGLLNGASQKAEVIMNYHVGETVLSLQKTTLIPGGSESLVYTTLSGGIGILVPFTSHEDHDFFQHVEMHLRSEHPPLCGRDHLSFRSYYFPVKNVIDGDLCEQFNSMEPNKQKNVSEELDRTPPEVSKKLEDIRTRYAF
# B3: L-DL (long isoform of hnRNP DL), endogenous in 293T cells (protein, UniProt O14979 1-420)
# chain: MEVPPRLSHVPPPLFPSAPATLASRSLSHWRPRPPRQLAPLLPSLAPSSARQGARRAQRHVTAQQPSRLAGGAAIKGGRRRRPDLFRRHFKSSSIQRSAAAAAATRTARQHPPADSSVTMEDMNEYSNIEEFAEGSKINASKNQQDDGKMFIGGLSWDTSKKDLTEYLSRFGEVVDCTIKTDPVTGRSRGFGFVLFKDAASVDKVLELKEHKLDGKLIDPKRAKALKGKEPPKKVFVGGLSPDTSEEQIKEYFGAFGEIENIELPMDTKTNERRGFCFITYTDEEPVKKLLESRYHQIGSGKCEIKVAQPKEVYRQQQQQQKGGRGAAAGGRGGTRGRGRGQGQNWNQGFNNYYDQGYGNYNSAYGGDQNYSGYGGYDYTGYNYGNYGYGQGYADYSGQQSTYGKASRGGGNHQNNYQPY
# Columns and labels:
# [1] = target: U2AF65 (U2 auxiliary factor 65 kDa subunit), endogenous in 293T cells (human (endogenous in 293T)) (UniProt P26368); experiment: co-IP; 293T cells transfected with GST-L-DL; immunoprecipitation with anti-U2AF65 antibody; immunoblot
# [2] = target: U2AF65 (U2 auxiliary factor 65 kDa subunit), endogenous in N2a cells (mouse (endogenous in N2a)) (UniProt P26369); experiment: co-IP; control or L-DL knockout N2a cell lysates; immunoprecipitation with anti-U2AF65 antibody; immunoblot and densitometry (n = 3)
# [3] = target: T1, GST-SC35; experiment: pull-down; co-affinity precipitation: GST-L-DL, GST-SC35 or GST control expressed in 293T cells; 500 μg lysate in GST-binding buffer (PBS, 0.1 mM EDTA, 0.1% Triton X-100, pH 7.4) on GST agarose beads overnight at 4 °C; washes with 0.1% SDS, 0.3% deoxycholate, 0.3% NP-40; immunoblot of endogenous partners
Molecule,binding [2],other results
"SF3B3 (splicing factor 3b subunit 3), endogenous in 293T cells (from UniProt Q15393 1-1217)",–,binding [1]: binds
B1,binds,–
B2,binds,–
B3,–,binding [3]: binds
